PubChem BioAssay AID1259254 – NCATS, 2017

Screen: 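Gene knock-downs that lead to re-replication, shown by excess G2 DNA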 (primary screen)
Cells: human HCT116 colorectal cancer cells
Reagents: single siRNA against human genes
Time to read-out: 3 days
Measured: 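Imaged Hoechst DNA stain sorts each cell into a cycle phase by DNA amount; per plate, G2 fraction set to 0% for non-targeting and 100% for GMNN siRNA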
Reading the numbers: G2 robust z-score: higher = more G2 cells, more excess DNA replication
Rule for the call: 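An siRNA counts as active if its G2 robust z-score lies at least 5 MADs above the screen median; here such calls match roughly 38% of GMNN control or more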
Shown is an unselected part of about 59,000 deposited reagents. Over the whole deposit, about 1,550 (2.6%) got an active call. 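G2 share is only a proxy for re-replication; each gene was hit by three separate siRNAs, and active genes were retested.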 Unmarked entries are inactive. The numbers tell different reagents against one gene apart. Not all columns of the deposit are shown. The record does not give: the amount of reagent.

STARD4 (GeneID 134429) #1 — G2 robust z-score: 1.78
STARD4 (GeneID 134429) #2 — G2 robust z-score: 4.39
STARD4 (GeneID 134429) #3 — G2 robust z-score: 1.27
CTAGE1 (GeneID 64693) #1 — G2 robust z-score: -0.85
CTAGE1 (GeneID 64693) #2 — G2 robust z-score: -0.61
CTAGE1 (GeneID 64693) #3 — G2 robust z-score: 0.0825
DNASE1 (GeneID 1773) #1 — G2 robust z-score: 1.24
DNASE1 (GeneID 1773) #2 — G2 robust z-score: 3.22
DNASE1 (GeneID 1773) #3 — G2 robust z-score: -0.117
FAM180A (GeneID 389558) #1 — G2 robust z-score: 0.884
FAM180A (GeneID 389558) #2 — G2 robust z-score: 1.11
FAM180A (GeneID 389558) #3 — G2 robust z-score: -0.96
IVL (GeneID 3713) #1 — G2 robust z-score: 0.448
IVL (GeneID 3713) #2 — G2 robust z-score: 0.793
IVL (GeneID 3713) #3 — G2 robust z-score: 0.506
SET (GeneID 6418) #1 — G2 robust z-score: 1.03
SET (GeneID 6418) #2 — G2 robust z-score: -0.766
SET (GeneID 6418) #3 — G2 robust z-score: -0.857
